Data reported in PMC5891081.
No constants are given. Whether binding was seen depends on the method and setting. For part of these data: Binding seen in cells or lysates may run through a third protein. Some results given as binding are weak or reduced against the parent protein; the word gives no strength. For part of these data: Tags and fused reporters may be left off the sequences shown.

Protein sequences, listed by entry. Tags and fused reporters are not part of them.
UniProt Q09472: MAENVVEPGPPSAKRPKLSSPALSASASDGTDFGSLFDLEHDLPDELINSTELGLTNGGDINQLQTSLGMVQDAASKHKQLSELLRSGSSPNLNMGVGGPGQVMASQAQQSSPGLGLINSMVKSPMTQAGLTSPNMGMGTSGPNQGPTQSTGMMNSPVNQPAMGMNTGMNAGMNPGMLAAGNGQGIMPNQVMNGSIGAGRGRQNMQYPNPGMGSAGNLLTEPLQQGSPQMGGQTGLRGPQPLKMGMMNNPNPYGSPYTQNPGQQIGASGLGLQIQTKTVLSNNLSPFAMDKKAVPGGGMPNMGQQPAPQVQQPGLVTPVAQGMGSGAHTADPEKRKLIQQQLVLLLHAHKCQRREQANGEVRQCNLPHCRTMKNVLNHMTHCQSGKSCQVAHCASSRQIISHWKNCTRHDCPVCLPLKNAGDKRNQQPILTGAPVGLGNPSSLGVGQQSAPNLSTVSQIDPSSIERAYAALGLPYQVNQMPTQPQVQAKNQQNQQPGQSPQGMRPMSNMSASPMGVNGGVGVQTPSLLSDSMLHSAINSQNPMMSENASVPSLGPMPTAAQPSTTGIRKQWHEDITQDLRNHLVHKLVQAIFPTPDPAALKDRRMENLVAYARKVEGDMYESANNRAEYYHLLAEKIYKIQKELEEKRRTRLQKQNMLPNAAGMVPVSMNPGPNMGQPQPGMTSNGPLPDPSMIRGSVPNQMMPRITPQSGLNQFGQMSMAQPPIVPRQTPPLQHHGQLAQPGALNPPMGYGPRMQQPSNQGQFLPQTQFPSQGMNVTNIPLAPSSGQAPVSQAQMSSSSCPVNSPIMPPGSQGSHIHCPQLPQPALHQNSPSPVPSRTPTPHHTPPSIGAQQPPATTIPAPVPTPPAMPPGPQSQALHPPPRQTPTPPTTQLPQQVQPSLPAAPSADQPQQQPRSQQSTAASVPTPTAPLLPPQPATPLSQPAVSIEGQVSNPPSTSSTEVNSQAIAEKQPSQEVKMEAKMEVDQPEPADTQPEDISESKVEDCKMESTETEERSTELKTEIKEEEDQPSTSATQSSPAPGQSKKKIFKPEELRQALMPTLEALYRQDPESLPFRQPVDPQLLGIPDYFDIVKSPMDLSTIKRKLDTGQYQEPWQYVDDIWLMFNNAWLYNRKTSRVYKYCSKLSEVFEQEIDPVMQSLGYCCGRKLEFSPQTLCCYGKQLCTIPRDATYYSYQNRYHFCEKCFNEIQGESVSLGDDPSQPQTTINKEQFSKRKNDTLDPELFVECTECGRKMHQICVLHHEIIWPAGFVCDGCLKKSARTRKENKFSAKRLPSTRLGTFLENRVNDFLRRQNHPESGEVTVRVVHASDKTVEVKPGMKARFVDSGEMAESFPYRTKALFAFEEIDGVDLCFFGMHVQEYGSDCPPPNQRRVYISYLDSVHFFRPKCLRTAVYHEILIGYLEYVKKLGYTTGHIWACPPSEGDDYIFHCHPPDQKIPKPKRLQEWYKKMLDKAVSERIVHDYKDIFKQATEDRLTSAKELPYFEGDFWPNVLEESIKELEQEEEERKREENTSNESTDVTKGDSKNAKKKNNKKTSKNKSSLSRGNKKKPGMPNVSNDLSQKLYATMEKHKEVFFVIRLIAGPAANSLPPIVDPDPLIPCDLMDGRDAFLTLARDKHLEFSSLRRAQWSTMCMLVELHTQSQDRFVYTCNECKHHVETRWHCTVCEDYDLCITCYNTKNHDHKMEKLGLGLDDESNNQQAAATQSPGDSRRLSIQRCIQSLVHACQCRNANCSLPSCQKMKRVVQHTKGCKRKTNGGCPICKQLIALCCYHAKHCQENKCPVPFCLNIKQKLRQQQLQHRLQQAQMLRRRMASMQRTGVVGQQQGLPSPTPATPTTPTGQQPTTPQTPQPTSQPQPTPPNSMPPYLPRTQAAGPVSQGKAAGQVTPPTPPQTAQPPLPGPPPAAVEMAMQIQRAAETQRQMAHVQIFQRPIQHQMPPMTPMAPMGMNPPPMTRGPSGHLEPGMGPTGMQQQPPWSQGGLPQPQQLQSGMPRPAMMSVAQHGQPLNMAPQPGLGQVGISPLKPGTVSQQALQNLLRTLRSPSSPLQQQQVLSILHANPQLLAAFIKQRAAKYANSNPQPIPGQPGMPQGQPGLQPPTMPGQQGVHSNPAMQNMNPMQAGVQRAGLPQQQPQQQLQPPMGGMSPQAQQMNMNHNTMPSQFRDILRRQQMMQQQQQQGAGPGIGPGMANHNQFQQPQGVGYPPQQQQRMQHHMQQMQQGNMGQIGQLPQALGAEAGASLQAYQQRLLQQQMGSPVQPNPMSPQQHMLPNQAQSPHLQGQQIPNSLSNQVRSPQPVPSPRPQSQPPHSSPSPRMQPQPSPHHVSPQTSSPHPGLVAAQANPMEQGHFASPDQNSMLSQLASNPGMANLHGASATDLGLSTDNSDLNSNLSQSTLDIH
UniProt Q92793: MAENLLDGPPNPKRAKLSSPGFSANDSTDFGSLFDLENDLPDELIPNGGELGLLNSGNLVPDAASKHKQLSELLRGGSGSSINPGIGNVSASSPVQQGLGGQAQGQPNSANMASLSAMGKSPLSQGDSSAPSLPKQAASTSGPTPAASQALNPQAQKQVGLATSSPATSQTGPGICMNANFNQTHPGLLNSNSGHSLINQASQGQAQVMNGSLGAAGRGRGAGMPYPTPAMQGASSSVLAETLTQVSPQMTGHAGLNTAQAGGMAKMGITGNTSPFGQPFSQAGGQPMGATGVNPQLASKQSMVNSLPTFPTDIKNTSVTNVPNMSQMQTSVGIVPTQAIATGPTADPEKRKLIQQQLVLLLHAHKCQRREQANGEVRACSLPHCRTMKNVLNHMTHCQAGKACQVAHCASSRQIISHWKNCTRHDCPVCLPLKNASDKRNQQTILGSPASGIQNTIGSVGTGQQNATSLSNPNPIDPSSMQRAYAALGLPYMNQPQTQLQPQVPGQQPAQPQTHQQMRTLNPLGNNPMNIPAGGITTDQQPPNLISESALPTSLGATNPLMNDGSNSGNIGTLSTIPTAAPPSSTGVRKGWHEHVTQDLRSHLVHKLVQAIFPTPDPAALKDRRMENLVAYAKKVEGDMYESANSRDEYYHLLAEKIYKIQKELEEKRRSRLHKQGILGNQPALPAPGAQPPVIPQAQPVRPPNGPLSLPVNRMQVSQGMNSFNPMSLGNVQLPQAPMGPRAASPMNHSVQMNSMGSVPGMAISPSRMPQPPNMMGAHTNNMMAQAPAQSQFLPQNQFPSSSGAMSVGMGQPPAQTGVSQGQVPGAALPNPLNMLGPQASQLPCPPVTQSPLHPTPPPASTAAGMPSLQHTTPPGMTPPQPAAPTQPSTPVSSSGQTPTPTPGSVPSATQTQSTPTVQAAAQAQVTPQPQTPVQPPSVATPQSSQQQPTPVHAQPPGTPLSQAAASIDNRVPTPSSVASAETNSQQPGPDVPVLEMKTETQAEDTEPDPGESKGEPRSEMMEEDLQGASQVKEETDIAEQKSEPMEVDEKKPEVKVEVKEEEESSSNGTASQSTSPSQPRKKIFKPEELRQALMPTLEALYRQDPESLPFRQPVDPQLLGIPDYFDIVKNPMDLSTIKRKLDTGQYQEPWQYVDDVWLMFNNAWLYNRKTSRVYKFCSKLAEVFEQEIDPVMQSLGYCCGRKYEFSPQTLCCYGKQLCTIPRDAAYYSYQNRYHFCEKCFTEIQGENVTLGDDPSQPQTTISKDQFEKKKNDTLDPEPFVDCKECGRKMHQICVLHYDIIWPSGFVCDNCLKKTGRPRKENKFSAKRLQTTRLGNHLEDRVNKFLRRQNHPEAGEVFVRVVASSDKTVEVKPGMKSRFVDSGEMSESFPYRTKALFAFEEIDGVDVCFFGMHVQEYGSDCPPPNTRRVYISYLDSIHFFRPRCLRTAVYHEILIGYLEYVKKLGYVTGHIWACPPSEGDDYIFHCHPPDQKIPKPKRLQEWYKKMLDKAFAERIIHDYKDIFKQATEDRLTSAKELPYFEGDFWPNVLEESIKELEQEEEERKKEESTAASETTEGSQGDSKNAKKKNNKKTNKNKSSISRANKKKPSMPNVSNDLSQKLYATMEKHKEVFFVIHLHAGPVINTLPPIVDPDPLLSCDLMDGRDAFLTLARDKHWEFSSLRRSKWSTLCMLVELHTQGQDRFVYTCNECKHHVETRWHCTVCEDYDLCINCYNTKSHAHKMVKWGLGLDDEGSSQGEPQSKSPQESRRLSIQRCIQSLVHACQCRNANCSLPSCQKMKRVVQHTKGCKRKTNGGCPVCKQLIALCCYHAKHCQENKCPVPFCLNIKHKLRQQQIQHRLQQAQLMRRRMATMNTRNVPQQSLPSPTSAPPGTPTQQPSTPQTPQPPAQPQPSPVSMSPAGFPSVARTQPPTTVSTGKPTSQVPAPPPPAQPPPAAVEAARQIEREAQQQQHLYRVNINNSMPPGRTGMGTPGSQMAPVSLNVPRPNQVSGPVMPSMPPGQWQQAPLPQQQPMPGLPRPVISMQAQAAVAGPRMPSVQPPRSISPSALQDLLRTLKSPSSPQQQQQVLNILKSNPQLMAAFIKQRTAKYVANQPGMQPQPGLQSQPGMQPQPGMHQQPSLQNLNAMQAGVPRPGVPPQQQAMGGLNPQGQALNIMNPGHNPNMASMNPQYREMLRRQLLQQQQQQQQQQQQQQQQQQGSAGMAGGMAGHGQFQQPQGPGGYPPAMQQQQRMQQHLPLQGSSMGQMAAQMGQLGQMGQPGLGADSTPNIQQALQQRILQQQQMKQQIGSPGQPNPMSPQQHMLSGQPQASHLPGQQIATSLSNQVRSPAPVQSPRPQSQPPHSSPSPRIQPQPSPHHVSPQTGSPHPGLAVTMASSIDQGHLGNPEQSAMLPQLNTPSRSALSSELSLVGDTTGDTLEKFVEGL

What was measured:
FLAG-p300 = FLAG-p300 (UniProt Q09472); test: pull-down; RAD52 or GST protein incubated with or without CBP-FLAG or FLAG-p300 in buffer P; immunoprecipitated proteins detected by anti-RAD52 + anti-GST and anti-FLAG immunoblot; both purified
CBP-FLAG = CBP-FLAG (UniProt Q92793); test: as above
[1] = target: p300 (exogenously overexpressed in HEK293 cells) (UniProt Q09472); test: cross-linking + co-IP; DSP-mediated in vivo cross-linking in HEK293 cells overexpressing p300 or CBP and expressing RAD52-HA or GST-HA, with or without doxorubicin; immunoprecipitation with anti-p300 or anti-CBP antibodies

B1: human RAD52 (recombinant protein) (protein, UniProt P43351 1-418)
chain: MSGTEEAILGGRDSHPAAGGGSVLCFGQCQYTAEEYQAIQKALRQRLGPEYISSRMAGGGQKVCYIEGHRVINLANEMFGYNGWAHSITQQNVDFVDLNNGKFYVGVCAFVRVQLKDGSYHEDVGYGVSEGLKSKALSLEKARKEAVTDGLKRALRSFGNALGNCILDKDYLRSLNKLPRQLPLEVDLTKAKRQDLEPSVEEARYNSCRPNMALGHPQLQQVTSPSRPSHAVIPADQDCSSRSLSSSAVESEATHQRKLRQKQLQQQFRERMEKQQVRVSTPSAEKSEAAPPAPPVTHSTPVTVSEPLLEKDFLAGVTQELIKTLEDNSEKWAVTPDAGDGVVKPSSRADPAQTSDTLALNNQMVTQNRTPHSVCHQKPQAKSGSWDLQTYSADQRTTGNWESHRKSQDMKKRKYDPS
binding (FLAG-p300): binds | binding (CBP-FLAG): binds

B2: RAD52-HA (protein, UniProt P43351 1-418)
chain: MSGTEEAILGGRDSHPAAGGGSVLCFGQCQYTAEEYQAIQKALRQRLGPEYISSRMAGGGQKVCYIEGHRVINLANEMFGYNGWAHSITQQNVDFVDLNNGKFYVGVCAFVRVQLKDGSYHEDVGYGVSEGLKSKALSLEKARKEAVTDGLKRALRSFGNALGNCILDKDYLRSLNKLPRQLPLEVDLTKAKRQDLEPSVEEARYNSCRPNMALGHPQLQQVTSPSRPSHAVIPADQDCSSRSLSSSAVESEATHQRKLRQKQLQQQFRERMEKQQVRVSTPSAEKSEAAPPAPPVTHSTPVTVSEPLLEKDFLAGVTQELIKTLEDNSEKWAVTPDAGDGVVKPSSRADPAQTSDTLALNNQMVTQNRTPHSVCHQKPQAKSGSWDLQTYSADQRTTGNWESHRKSQDMKKRKYDPS
binding [1]: binds
